The values that follow come from PMC4535766, “Antiprotozoal Activity Profiling of Approved Drugs: A Starting Point toward Drug Repositioning” (PLoS ONE, 2015).

Data set [1] deals with T. b. rhodesiense strain STIB 900, trypomastigotes. The experiment in a line: In vitro activity against T. b. rhodesiense, serial drug dilution assay. The conditions noted are these: Trypanosoma brucei, read-out: IC50 T. b. rhod. As to the method:
(§1) Drug stock solutions (10mg/ml) were in DMSO (100%). […] Selectivity index (SI) was calculated as IC50 L6 cells/IC50 parasite.

The test system of data set [2] is T. cruzi, strain Tulahuen C4, intracellular amastigotes. The experiment in a line: microbe, parasite or virus in culture. The conditions noted are these: Trypanosoma cruzi, read-out: IC50 T. cruzi. How it is done: as §1
For data set [3], the system named is axenic amastigotes of L. donovani, strain MHOM-ET-67/L82. The data set can be described thus: In vitro activity against L. donovani axenic amastigotes, serial drug dilution assay. The format is cell-based. The conditions noted are these: Leishmania donovani, means of two independent assays, read-out: IC50 L. don. axen. As to the method: as §1
In data set [4] the test system is intracellular amastigotes of L. donovani strain MHOM-ET-67/L82. The experiment in a line: Activity against Leishmania donovani intracellular amastigotes in mouse peritoneal macrophages. Particulars: Peritoneal macrophage, 96 h, read-out: IC50 L. don. intracell. How it is done:
After 24 h 1.2 x 10^5 amastigote L. donovani in 100 μl were added. The amastigotes were taken from an axenic culture grown at pH 5.4. Four hours later, the medium containing free amastigote forms was removed and replaced by fresh medium. The next day the medium was replaced by medium with or without a serial drug dilution of seven 3-fold dilution steps covering a range from 30 to 0.04 μg/ml. Parasite growth in the presence of the drug was compared to control wells. After 96 h of incubation, the medium was removed and the slides fixed with methanol for 10 min followed by staining with a 10% Giemsa solution. Infected and non-infected macrophages were counted for the control cultures and those exposed to the serial drug dilutions. The infection rates were determined. The results were expressed as a percentage reduction in parasite burden compared to control wells, and the IC50 was calculated by linear regression analysis. The collection of mouse peritoneal macrophages was done at the Swiss Tropical and Public Health Institute (Basel) according to the rules and regulations for the protection of animal rights ("Tierschutzverordnung") of the Swiss "Bundesamt für Veterinärwesen".

The test system of the next data set is P. falciparum strain K1. The data set can be described thus: In vitro activity against P. falciparum, serial drug dilution assay. Particulars: Plasmodium falciparum, K1, read-out: IC50 P. falc. K1. As to the method:
as §1

The nature of another data set: Cytotoxicity on L6 cells. Particulars: rat, IC50 Cytotox. L6, L6 cells, means of two independent assays. As to the method:
as §1

Data set [5] can be described thus: Cytotoxicity on macrophages infected with L. donovani. Particulars: mouse, mouse peritoneal macrophages infected with L. donovani, read-out: IC50 Cytotox. mac.inf. The format is cell-based.

Structures are written as SMILES. Bounds are passed on as bounds.

Take `O=C(CCCN1CCC2(CC1)C(=O)NCN2c1ccccc1)c1ccc(F)cc1` [Spiperone]: the IC50 in data set [1] is 22.4 µM; in data set [2], 64.6 µM; in data set [3], above 228 µM; in data set [4], above 75.9 µM; in the data set on P. falciparum strain K1, 1.76 µM; in “Cytotoxicity on L6 cells” it was 54.4 µM. Also, the IC50 at 96 h in data set [5] was above 75.9 µM.
